Measured values: doi:10.64898/2025.12.17.694969
No constants are given. Whether binding was seen depends on the method and setting. Some entries that bind do so weakly or less than the wild type. For some of these results: Where a sequence is shown, tags or fusion partners need not be part of it.

Legend:
[1] = biological target: T1, Symplekin with twin-StrepII tag (S. pombe Symplekin/Pta1) (S. pombe) (UniProt Q10222); test: cross-linking
T1 sequence: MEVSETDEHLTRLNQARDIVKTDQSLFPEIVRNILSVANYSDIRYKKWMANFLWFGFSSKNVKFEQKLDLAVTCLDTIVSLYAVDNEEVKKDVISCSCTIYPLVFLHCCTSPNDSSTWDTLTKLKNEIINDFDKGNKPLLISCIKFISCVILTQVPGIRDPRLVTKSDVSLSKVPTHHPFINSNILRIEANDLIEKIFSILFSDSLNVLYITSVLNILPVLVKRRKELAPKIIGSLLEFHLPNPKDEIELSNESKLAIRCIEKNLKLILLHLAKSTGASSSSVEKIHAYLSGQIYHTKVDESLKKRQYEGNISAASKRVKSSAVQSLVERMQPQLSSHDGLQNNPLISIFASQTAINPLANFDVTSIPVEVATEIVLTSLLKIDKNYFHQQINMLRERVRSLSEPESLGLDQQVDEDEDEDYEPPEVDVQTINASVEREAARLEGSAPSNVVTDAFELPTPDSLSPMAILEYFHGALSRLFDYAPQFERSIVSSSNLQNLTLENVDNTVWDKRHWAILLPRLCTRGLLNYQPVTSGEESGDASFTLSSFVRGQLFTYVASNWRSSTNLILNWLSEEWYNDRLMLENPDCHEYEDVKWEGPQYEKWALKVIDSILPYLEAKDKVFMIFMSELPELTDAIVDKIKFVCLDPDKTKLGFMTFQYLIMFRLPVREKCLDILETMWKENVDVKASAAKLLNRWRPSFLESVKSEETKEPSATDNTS

[2] = biological target: T2, SymplekinNTD (Symplekin residues 1–307) (S. pombe) (UniProt Q10222); test: crystal structure
T2 sequence: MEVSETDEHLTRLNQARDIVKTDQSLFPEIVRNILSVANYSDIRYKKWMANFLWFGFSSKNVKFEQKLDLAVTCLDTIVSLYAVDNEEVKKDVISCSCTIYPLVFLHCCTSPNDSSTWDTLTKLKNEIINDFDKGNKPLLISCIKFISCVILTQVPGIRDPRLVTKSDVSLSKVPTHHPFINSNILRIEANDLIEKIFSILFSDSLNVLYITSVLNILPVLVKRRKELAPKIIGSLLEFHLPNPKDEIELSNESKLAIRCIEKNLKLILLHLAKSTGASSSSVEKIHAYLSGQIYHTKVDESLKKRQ

[3] = biological target: T3, SymplekinNTD^DPR-AAA (S. pombe) (UniProt Q10222); test: SEC
T3 sequence: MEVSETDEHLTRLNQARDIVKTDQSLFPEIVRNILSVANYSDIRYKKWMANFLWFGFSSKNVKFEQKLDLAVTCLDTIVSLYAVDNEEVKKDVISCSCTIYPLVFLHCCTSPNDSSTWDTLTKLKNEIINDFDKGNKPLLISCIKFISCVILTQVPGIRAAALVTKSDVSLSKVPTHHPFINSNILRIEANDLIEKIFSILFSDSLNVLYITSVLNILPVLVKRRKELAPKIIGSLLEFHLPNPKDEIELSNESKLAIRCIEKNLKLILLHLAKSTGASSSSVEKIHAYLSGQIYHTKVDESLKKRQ

[4] = biological target: T2, SymplekinNTD (Symplekin residues 1–307) (S. pombe); test: SEC

binding [1]: binds
binding [2]: binds
binding [3]: binds
binding [4]: binds
B1: Ssu72 (S. pombe) (enzyme, UniProt O42868 1-197)
chain: MAPKTNLQISVICASNQNRSMEAHNVLKNAGYQVDSFGTGSAVRLPGPSIDKPNIYQFGYPYDEIYKELEAQDSRLYTANGLLKMLDRNRRIKRAPCRWQDQDSIYNIVITCEERCYDAICEDLYRRGETLNRPVYLINVDIKDNHEEASVGGKAILDLVNKLTEAQDKLEELFPSIMADFQSNHPKLPVLYTIHFF
